Article PMC4394480
No constants are given. Whether binding was seen depends on the method and setting. Binding seen in cells or lysates may run through a third protein. Binding can be weak; no strength is given.

How the values were obtained:
[1] = biological target: T1, tetraspanin 8 (human (endogenous in glioma cell lines and glioma tissues)) (UniProt P19075); assay: co-IP; lysates of four human glioma tissues (grade 3-4); IP lysis buffer containing 3% CHAPS, indicated antibody overnight at 4 °C, protein A/G Sepharose, Western blot; precipitating antibody not given
T1 sequence: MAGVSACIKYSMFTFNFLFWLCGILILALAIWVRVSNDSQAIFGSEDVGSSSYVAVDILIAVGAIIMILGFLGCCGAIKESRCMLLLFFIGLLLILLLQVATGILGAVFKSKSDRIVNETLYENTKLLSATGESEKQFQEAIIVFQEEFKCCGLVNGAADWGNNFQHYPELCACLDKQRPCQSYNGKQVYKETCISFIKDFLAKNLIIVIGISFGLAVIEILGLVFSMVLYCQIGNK

[2] = biological target: T1, tetraspanin 8 (human (endogenous in glioma cell lines and glioma tissues)); assay: co-IP; lysates of human glioma cell lines (CGH-5, TJ-899, SGH-44, TJ-905, U251MG); IP lysis buffer containing 3% CHAPS, indicated antibody overnight at 4 °C, protein A/G Sepharose, Western blot; precipitating antibody not given

integrin α3
binding [1]: binds | binding [2]: binds
